Binding data for three substances are collected here from article PMC11192907.

Chains of the proteins cited; added tags and fusions are not shown. Lines headed by an entry give the natural chain unless they say otherwise; changes in a name come on top. A line that says so, or that is headed by a name, gives the form on record, which may keep a tag or linker.
UniProt Q13283: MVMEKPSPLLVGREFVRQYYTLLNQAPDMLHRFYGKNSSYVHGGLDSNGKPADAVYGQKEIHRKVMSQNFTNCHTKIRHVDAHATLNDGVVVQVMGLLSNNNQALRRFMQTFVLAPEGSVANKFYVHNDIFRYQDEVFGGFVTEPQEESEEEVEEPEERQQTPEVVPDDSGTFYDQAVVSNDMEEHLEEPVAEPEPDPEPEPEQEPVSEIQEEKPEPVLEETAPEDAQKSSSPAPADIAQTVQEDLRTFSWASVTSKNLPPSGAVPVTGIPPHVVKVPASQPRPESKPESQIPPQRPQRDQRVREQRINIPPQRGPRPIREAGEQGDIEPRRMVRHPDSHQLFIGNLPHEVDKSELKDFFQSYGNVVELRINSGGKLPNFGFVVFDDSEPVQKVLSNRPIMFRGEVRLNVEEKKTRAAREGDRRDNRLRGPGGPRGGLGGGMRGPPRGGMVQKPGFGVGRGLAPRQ
HA-G3BP1-Δ1 lacking the domain of nuclear transport factor 2 (NTF2) (11-133 aa) (Q13283, form named): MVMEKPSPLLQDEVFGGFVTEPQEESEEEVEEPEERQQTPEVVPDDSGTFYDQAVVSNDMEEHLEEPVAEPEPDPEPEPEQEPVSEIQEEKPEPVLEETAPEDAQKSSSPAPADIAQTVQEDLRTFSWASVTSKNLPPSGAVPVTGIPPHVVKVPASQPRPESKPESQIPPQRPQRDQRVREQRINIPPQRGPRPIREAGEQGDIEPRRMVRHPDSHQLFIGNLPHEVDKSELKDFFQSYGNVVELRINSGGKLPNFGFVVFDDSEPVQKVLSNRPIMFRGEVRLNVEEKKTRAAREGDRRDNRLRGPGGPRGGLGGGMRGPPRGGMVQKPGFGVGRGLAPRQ

Results are given in words; binding and its absence hold for the method and conditions named. Binding seen in cells or lysates may run through a third protein. Some entries that bind do so weakly or less than the wild type. For part of these data: Tags and fused reporters may be left off the sequences shown.

Assay [1] concerns the target T1, Ubiquitin Specific Peptidase 21 (USP21), endogenous (human (endogenous in KYSE-150 and Eca-109)) (UniProt Q9UK80).
T1 sequence: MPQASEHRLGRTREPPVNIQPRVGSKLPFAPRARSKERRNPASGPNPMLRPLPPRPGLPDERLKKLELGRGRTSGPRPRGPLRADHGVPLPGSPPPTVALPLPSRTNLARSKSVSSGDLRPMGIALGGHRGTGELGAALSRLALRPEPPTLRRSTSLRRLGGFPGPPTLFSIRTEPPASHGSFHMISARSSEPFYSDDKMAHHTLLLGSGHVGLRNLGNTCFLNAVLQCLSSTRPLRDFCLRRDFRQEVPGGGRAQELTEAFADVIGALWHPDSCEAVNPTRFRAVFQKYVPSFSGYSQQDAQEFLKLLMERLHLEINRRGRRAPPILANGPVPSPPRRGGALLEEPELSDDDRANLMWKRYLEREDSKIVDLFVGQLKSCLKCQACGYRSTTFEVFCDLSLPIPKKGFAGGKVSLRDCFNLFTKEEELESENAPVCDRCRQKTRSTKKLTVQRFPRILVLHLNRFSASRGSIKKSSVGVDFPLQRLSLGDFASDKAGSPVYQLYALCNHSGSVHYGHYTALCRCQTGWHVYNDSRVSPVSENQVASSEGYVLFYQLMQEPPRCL
The assay can be described thus: co-IP; endogenous proteins in KYSE-150 and Eca-109 lysates; IP with antibody against G3BP1 or USP21, Protein A Agarose, immunoblotting.

Assay [2] deals with T2, Flag-USP21^WT (UniProt Q9UK80).
T2 sequence: T1 sequence
The assay can be described thus: co-IP; truncated USP21 with G3BP1^WT (Fig. 3E) or USP21^WT with truncated G3BP1 (Fig. 3F); IP with HA or Flag antibody, immunoblotting; cell line not stated.

Assay [3] deals with T2, Flag-USP21^WT. The assay can be described thus: co-IP; HEK293T cells transfected with Flag-USP21^WT and HA-G3BP1^WT plasmids; IP with Flag or HA antibody, immunoblotting.

Turning to “G3BP Stress Granule Assembly Factor 1 (G3BP1), endogenous (from UniProt Q13283 1-466)”, in assay [1], the binding result was “binds”.

Regarding “HA-G3BP1-Δ1 lacking the domain of nuclear transport factor 2 (NTF2) (11-133 aa) (from UniProt Q13283 1-466)”, in the assay with Flag-USP21^WT [2], the binding result is listed as “no binding”.

Take HA-G3BP1^WT (from UniProt Q13283 1-466): the binding result with Flag-USP21^WT [3] was “binds”.
